Reference: patent US20220403048A1, “BINDING MOLECULES TO ARGINASE II [ARG2]” (Cancer Research Technology Limited, priority 2019, published 2022)

Test system: ARG2
Assay: Immunoprecipitation and Western blotting of ARG2 released into cell conditioned medium of cancer cell lines
Design: species or system human; key: ‘+’ indicates presence of ARG2; ‘+++’ indicates high levels of ARG2; ‘+/−’ ARG2 presence could not be unambiguously established; ‘−’ no ARG2 was detected

B1: ARG2 (protein)
chain: VHSVAVIGAPFSQGQKRKGVEHGPAAIREAGLMKRLSSLGCHLKDFGDLSFTPVPKDDLYNNLIVNPRSVGLANQELAEVVSRAVSDGYSCVTLGGDHSLAIGTISGHARHCPDLCVVWVDAHADINTPLTTSSGNLHGQPVSFLLRELQDKVPQLPGFSWIKPCISSASIVYIGLRDVDPPEHFILKNYDIQYFSMRDIDRLGIQKVMERTFDLLIGKRQRPIHLSFDIDAFDPTLAPATGTPVVGGLTYREGMYIAEEIHNTGLLSALDLVEVNPQLATSEEEAKTTANLAVDVIASSFGQTREGGHIVYDQLPTPSSPDESENQARVRI
modifications: left off: small tags and cut ends
ARG2 detected by IP-WB (CCM of A673 (Sarcoma)): +++ | ARG2 detected by IP-WB (CCM of A2780-ADR (Ovarian)): + | ARG2 detected by IP-WB (CCM of A2780-Cis (Ovarian)): +++ | ARG2 detected by IP-WB (CCM of A2780-Parental (Ovarian)): + | ARG2 detected by IP-WB (CCM of AGS (Gastric)): + | ARG2 detected by IP-WB (CCM of DU145 (Prostate)): − | ARG2 detected by IP-WB (CCM of DX3 (Skin)): +/− | ARG2 detected by IP-WB (CCM of HL-60 (Haematopoietic and Lymphoid)): +/− | ARG2 detected by IP-WB (CCM of HPAF-II (Pancreatic)): +/− | ARG2 detected by IP-WB (CCM of HT-1080 (Sarcoma)): − | ARG2 detected by IP-WB (CCM of HuTu-80 (Gastric)): + | ARG2 detected by IP-WB (CCM of K562 (Haematopoietic and Lymphoid)): − | ARG2 detected by IP-WB (CCM of KATO-III (Gastric)): + | ARG2 detected by IP-WB (CCM of KMS11 (Haematopoietic and Lymphoid)): + | ARG2 detected by IP-WB (CCM of LNCaP (Prostate)): +++ | ARG2 detected by IP-WB (CCM of MDA-MB-231 (Breast)): − | ARG2 detected by IP-WB (CCM of NCI-N87 (Gastric)): − | ARG2 detected by IP-WB (CCM of OVCAR-3 (Ovarian)): +/− | ARG2 detected by IP-WB (CCM of PC3 (Prostate)): − | ARG2 detected by IP-WB (CCM of PNT2 (normal prostate epithelium)): − | ARG2 detected by IP-WB (CCM of SKOV-3 (Ovarian)): − | ARG2 detected by IP-WB (CCM of SNU-1 (Gastric)): − | ARG2 detected by IP-WB (CCM of SNU-5 (Gastric)): +/− | ARG2 detected by IP-WB (CCM of SNU-16 (Gastric)): + | ARG2 detected by IP-WB (CCM of Saos-2 (Sarcoma)): + | ARG2 detected by IP-WB (CCM of U2-OS (Sarcoma)): −
